# According to patent publication US20260191961A1, “RUTHENIUM (II) POLYPYRIDYL COMPLEX AS A PHOTO-SENSITISER IN PHOTODYNAMIC THERAPY, AND A PROCEDURE FOR MAKING SAID RUTHENIUM (II) POLYPYRIDYL COMPLEX” (UNIVERSITÀ DEGLI STUDI DI FIRENZE, priority 2022, published 2026):
# For at least one compound, name, drawing or mass did not settle the structure.
# Tested on: calf thymus DNA (ct-DNA)
# Assay: UV-Vis titration with calf thymus DNA
# Format: binding
# Conditions: complex 10 μM; Tris-HCl 10 mM, NaCl 50 mM, pH 7.2; 322 nm band
row,SMILES,"Kb (ct-DNA), intrinsic binding constant"
1,F[P-](F)(F)(F)(F)F.F[P-](F)(F)(F)(F)F.O=C(c1ccnc(-c2cc(C(=O)N3CCOCC3)ccn2)c1)N1CCOCC1.[Ru+2].c1ccc2cc3nc4c5cccnc5c5ncccc5c4nc3cc2c1.c1ccc2cc3nc4c5cccnc5c5ncccc5c4nc3cc2c1 [Complex IIIc],8.75 × 105
2,Cc1ccnc(-c2cc(C)ccn2)c1.F[P-](F)(F)(F)(F)F.F[P-](F)(F)(F)(F)F.[Ru+2].c1ccc2cc3nc4c5cccnc5c5ncccc5c4nc3cc2c1.c1ccc2cc3nc4c5cccnc5c5ncccc5c4nc3cc2c1 [Complex IIIa],7.49 × 105
3,"O=C([O-])c1ccnc(-c2cc(C(=O)[O-])ccn2)c1.[Ru+2].c1ccc2cc3nc4c5cccnc5c5ncccc5c4nc3cc2c1.c1ccc2cc3nc4c5cccnc5c5ncccc5c4nc3cc2c1 [Complex IIIb, [Ru(4,4′-dicarboxylate-2,2′-bipyridine)(benzo[i]dipyrido[3,2-a:2′,3′-c]phenazine)2]]",2.34 × 106
